Measurements published in PubChem BioAssay AID504467 (National Center for Advancing Translational Sciences (NCATS), 2011).
The whole screen tested about 330,000 compounds, of which about 7,700 (2.3%) were called active. Inconclusive results, whose numbers are uncertain, are shown with a selection of clear calls. Calls come from the whole dose curve; as a rule, active = well fitted inhibition curve with a large enough effect; inconclusive = small, poorly fitted or top-dose-only effect, or effect the other way; inactive = flat fitted curve, though single readings scatter. A potency beside an inconclusive call is a rough fit, not a confirmed value.

assay: qHTS screen for small molecules that inhibit ELG1-dependent DNA repair in human embryonic kidney (HEK293T) cells expressing luciferase-tagged ELG1; details: HEK293T ELG1-luciferase reporter, luminescence, 16 h, DNA damage induced by 5-fluorouridine; activity change, negative = inhibition: at 46.1 µM (top of the series); note: nearly all actives have a fitted effect of over 55% in size
Procedure, shortened: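 Reporter activity after DNA damage by 5-fluorouridine is monitored. Compound-treated cells incubate 16 hr at 37 °C, then ONE-Glo is added for 30 min before luminescence reading.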
% is set by controls: 0 for no effect and ±100 for the full control effect; potency is the fitted concentration of half-maximal effect.

SMILES	Potency	activity change, negative = inhibition
O=C(c1ccc(-c2cc(O)c3ncccc3c2)cc1)N1CCNCC1	inconclusive: 14.6 µM [activator, partial curve]	
CCC(=O)N1CCC(NC(=O)Nc2ccc(OC(F)(F)F)cc2)CC1		inconclusive: 47.3% [activator]
Cc1ccc(OCC(=O)Nc2ccccc2F)cc1C	inconclusive: 13 µM [activator, partial curve]	
O=c1c2ccccc2nc2sc(Nc3cccc(Cl)c3)nn12	inconclusive: 8.2 µM [activator, partial curve]	
O=C(Nc1ccccn1)c1cc(-c2cccnc2)nc2ccc(Br)cc12	inconclusive: 16.4 µM [inhibitor, partial curve, poor fit]	
CCN(CC(=O)Nc1ccc(C(=O)OC)cc1)Cc1ccccc1		inactive: -10.5%
COc1ccc(-n2ccc(-c3nn(-c4cccc(C(F)(F)F)c4)ccc3=O)n2)cc1	active: 8.2 µM	
COc1ccc(S(=O)(=O)N2CCCC(C(=O)NCc3cccnc3)C2)cc1OC (centres undefined)		inactive: -8.07%
Cc1nnc2ccc(-c3cccc(NS(=O)(=O)c4ccccc4Cl)c3)nn12		inactive: 17.9%
Cc1oc2ccc(OC(=O)COc3c(F)c(F)c(F)c(F)c3F)cc2c1C(=O)OC(C)C	inconclusive: 20.6 µM [activator, single point]	
COc1ccc(CCNc2oc(-c3ccc(C)cc3)nc2C#N)cc1OC		inactive: -16.2%
CCOc1ccc(OCC)c(NC(=O)CC2Oc3ccccc3NC2=O)c1 (centres undefined)	inconclusive: 23.1 µM [inhibitor, single point]	
CC[n+]1c(/C=C/C=C/N(C(C)=O)c2ccccc2)sc2cc(OC)ccc21		inactive: -10.3%
FC(F)Sc1ccc(N=C2NN=C(c3ccc4c(c3)OCCO4)CS2)cc1	inconclusive: 11.6 µM [activator, partial curve]	
CNc1nc2ccccc2n1/N=C/c1cccc(OC)c1OC	inconclusive: 14.1 µM [inhibitor, single point]	
O=c1c(N2CCCCC2)coc2ccccc12	inconclusive: 23.1 µM [activator, partial curve]	
c1ccc(-c2noc(-c3cccnc3)n2)nc1	inconclusive: 9.2 µM [activator, partial curve]	
O=C1OCCN/C1=C\C(=O)c1ccc(Cl)cc1		inactive: -9.31%
Cc1ccn2c(C(=O)N/N=C/c3ccc(Cl)cc3)c(C)nc2c1		inactive: 27.4%
Cc1ccc(-n2[nH]c(C)c(/C=N/Nc3ccc([N+](=O)[O-])cc3[N+](=O)[O-])c2=O)cc1C	active: 10.3 µM	
O=C(Cc1ccsc1)NNC(=O)c1cccc(Cl)c1		inactive: 0%
Cc1ccc(S(=O)(=O)NN)c(C)c1N1CCCC1=O		inactive: 22.6%
CC(C)c1ccc(N(CC(=O)N2CCN(Cc3ccccc3)CC2)S(C)(=O)=O)cc1		inactive: -9.74%
CC[C@H](C)[C@@H](C(=O)NCCCCCCCCCCC(=O)N1CCN(C(=O)OC(C)(C)C)CC1)n1cc(CCCCN=C(NC(=O)OC(C)(C)C)NC(=O)OC(C)(C)C)nn1	inconclusive: 12.6 µM [inhibitor, single point]	
CC(C)C(=O)Nc1cc2c3c(c1)CCC(=O)N3CCC2		inactive: 0%

SMILES	Potency	activity change, negative = inhibition
Cc1ccc(S(=O)(=O)NCc2ccccc2)cc1C(=O)N1CCN(c2ccccc2)CC1	inconclusive: 20.6 µM [inhibitor, single point]	
CCOc1ccc(NC(=O)c2sc3nc(N4CCOCC4)c4c(c3c2N)CCCC4)cc1		inactive: 0%
O=C(NNC(=O)C1C2CCC(C2)C1C(=O)O)c1cccc(Cl)c1 (centres undefined)	inconclusive: 13 µM [activator, partial curve, poor fit]	
O=C(Nc1ccc(Cl)cc1)NC1(C(=O)NCCCN2CCOCC2)CCCCC1	inconclusive: 32.6 µM [activator, partial curve, poor fit]	
Cc1cccc(OCC(=O)NNC(=O)C2CCN(c3ncnc4sc(C)c(C)c34)CC2)c1	inconclusive: 9.2 µM [inhibitor, partial curve]	
Fc1ccc(Br)cc1C1C=C(c2ccc(Br)cc2)Nc2ncnn21 (centres undefined)	inconclusive: 14.6 µM [inhibitor, partial curve]	
Cc1ccc2cc(C#N)c(SCC(=O)N3CCCc4ccccc43)nc2c1		inactive: 0.589%
N#Cc1c(N)sc2c1CCN(C(=O)OCc1ccccc1)C2	inconclusive: 20.6 µM [activator, single point]	
Fc1ccc(CCNC(=S)Nc2ccc(F)cc2)cc1	inconclusive: 18.4 µM [activator, single point]	
O=C(Nc1cc(-c2nc3ncccc3o2)ccc1Cl)c1cccs1		inactive: -5.98%
CCCCn1c(SCC(=O)Nc2ccccc2C(F)(F)F)nc2ccsc2c1=O	inconclusive: 18.4 µM [inhibitor, single point]	
CC(=O)c1ccc(NC(=O)C2CCCC2)cc1	inconclusive: 11.6 µM [activator, partial curve]	
NCC(=O)NNC(=O)OCC1c2ccccc2-c2ccccc21	inconclusive: 0.501 µM [activator, single point]	
CCOC(=O)C(=Cc1ccc(F)cc1)C(=O)OCC	inconclusive: 29.1 µM [inhibitor, single point]	
COc1ccc(CNC(=O)c2nnn(-c3cccc(C(F)(F)F)c3)c2N)cc1	inconclusive: 20.6 µM [inhibitor, single point]	
COc1ccc(CCNC(=O)Cn2nnc(C(=O)Nc3ccc(Br)cc3)c2N)cc1OC	inconclusive: 18.3 µM [inhibitor, partial curve, poor fit]	
Cc1nc(C)n(CC(O)COc2ccc(C(=O)c3ccccc3)cc2)n1 (centres undefined)	inconclusive: 14.1 µM [inhibitor, single point]	
COc1cccc(NC(=O)COC(=O)c2c(F)cccc2F)c1		inactive: 12.9%
CC(=O)Cc1nsc(NC(=O)c2ccc(Cl)cc2Cl)n1	inconclusive: 29.1 µM [activator, single point]	
Cc1ccc(N2C(=O)Nc3ccccc3S2(=O)=O)cc1Cl	inconclusive: 16.4 µM [inhibitor, partial curve, poor fit]	
COCCOC(=O)c1c(C)oc2ccc(OC(=O)c3cccs3)cc12	inconclusive: 16.4 µM [activator, partial curve]	
COc1ccc(OC)c(CCNC(=O)CC2Oc3ccccc3NC2=O)c1 (centres undefined)	inconclusive: 25.9 µM [inhibitor, single point]	
COC(=O)c1ccc(/C=C/c2nc3ccccc3c(=O)[nH]2)cc1	inconclusive: 5.8 µM [activator, partial curve]	
CCCc1nnc(SCC(=O)O)n1/N=C/c1ccc2c(c1)OCO2	inconclusive: 29.1 µM [activator, single point]	
Brc1cccc(/C=N/Nc2nn[nH]n2)c1		inactive: 3.59%

SMILES	Potency	activity change, negative = inhibition
COc1ccc(NC2=NCCC(=O)N2Cc2cccs2)cc1	inconclusive: 18.4 µM [activator, single point]	
CCOC(=O)N1CCC(NC(=O)c2cc(COc3ccccc3SC)on2)CC1		inactive: -3.23%
Cn1c(-c2csc(-c3cccc(C(F)(F)F)c3)n2)n[nH]c1=S		inactive: -0.752%
COc1ccccc1N(CN1C(=O)c2ccccc2C1=O)C(=O)c1cccc(C)c1	inconclusive: 23.1 µM [inhibitor, partial curve, poor fit]	
CCOc1ccc(Nc2c3ccccc3nc3ccccc23)cc1	active: 5.8 µM	
O=C(N/N=C/c1cc2ccccc2nc1Cl)c1ccncc1		inactive: -12.9%
CCCCNC(=O)COC(=O)c1ccc(Cl)c(S(=O)(=O)N2CCCC2)c1	inconclusive: 20.6 µM [inhibitor, single point]	
CCCN(CC(=O)Nc1ccccc1C)C(=O)C1CCN(S(=O)(=O)c2ccccc2C(F)(F)F)CC1	inconclusive: 18.3 µM [inhibitor, partial curve, poor fit]	
O=C1C(=O)N(CCc2c[nH]c3ccccc23)C(c2cccnc2)/C1=C(/O)c1ccccc1 (centres undefined)		inactive: -0.259%
O=C(Nc1ccccc1)c1ccccc1CCc1ccccc1		inactive: -14.2%
CC(C)(C)Nc1nc(C(N)=O)nc(N2CCOCC2)n1		inactive: 17.6%
CC1=CC(C)(C)NC(=O)N1c1ccc(C)cc1		inactive: -3.37%
COc1ccc(N2CC(O)=C(c3nc(-c4ccc(Br)cc4)cs3)C2=N)cc1		inactive: 8.77%
Cc1ccc(OC(C)C(=O)Nc2ccc(C)c(S(=O)(=O)Nc3ccc(C)cc3C)c2)cc1 (centres undefined)	inconclusive: 23.1 µM [inhibitor, single point]	
CC1Cc2cc(/C(O)=C3/C(=O)C(=O)N(CCN4CCOCC4)C3c3cccc(O)c3)ccc2O1 (centres undefined)	inconclusive: 29.1 µM [activator, single point]	
Cc1ccc(NC(=S)NCc2ccccn2)cc1	inconclusive: 18.4 µM [activator, single point]	
COCCCN(C(C)=O)c1nc(-c2ccccc2)cs1	inconclusive: 20.6 µM [activator, partial curve]	
CCOc1ncccc1C(=O)Nc1ccc(S(=O)(=O)Nc2nccs2)cc1	inconclusive: 16.4 µM [activator, partial curve, poor fit]	
C/C(=C\c1ccc(N)cc1)c1nc2ccccc2[nH]1	inconclusive: 8.2 µM [activator, partial curve]	
CN(C)/C=C/C(=O)c1cccc(C(F)(F)F)c1	inconclusive: 29.1 µM [activator, single point]	
COc1ccc(NC(=O)c2oc3ccccc3c2NC(=O)c2ccco2)cc1	active: 10.3 µM	
Cc1nc2cccc(C(=O)NCc3ccccc3)c2o1		inactive: -1.28%
COc1ccc(C2C(C#N)C(C#N)N3CCCN23)cc1 (centres undefined)		inactive: 8.46%
CCc1nnc(NC(=O)Nc2ccccc2OC)s1	inconclusive: 20.6 µM [activator, single point]	

In another format: 14 of the compounds above.
SMILES | Potency | activity change, negative = inhibition
CCN(CC(=O)Nc1ccc(C(=O)OC)cc1)Cc1ccccc1 |  | inactive: -10.5%
COc1ccc(-n2ccc(-c3nn(-c4cccc(C(F)(F)F)c4)ccc3=O)n2)cc1 | active: 8.2 µM | 
COc1ccc(S(=O)(=O)N2CCCC(C(=O)NCc3cccnc3)C2)cc1OC (centres undefined) |  | inactive: -8.07%
Cc1oc2ccc(OC(=O)COc3c(F)c(F)c(F)c(F)c3F)cc2c1C(=O)OC(C)C | inconclusive: 20.6 µM [activator, single point] | 
CCOc1ccc(OCC)c(NC(=O)CC2Oc3ccccc3NC2=O)c1 (centres undefined) | inconclusive: 23.1 µM [inhibitor, single point] | 
CNc1nc2ccccc2n1/N=C/c1cccc(OC)c1OC | inconclusive: 14.1 µM [inhibitor, single point] | 
O=C(Cc1ccsc1)NNC(=O)c1cccc(Cl)c1 |  | inactive: 0%
Cc1ccc(S(=O)(=O)NN)c(C)c1N1CCCC1=O |  | inactive: 22.6%
CC(C)C(=O)Nc1cc2c3c(c1)CCC(=O)N3CCC2 |  | inactive: 0%
COCCOC(=O)c1c(C)oc2ccc(OC(=O)c3cccs3)cc12 | inconclusive: 16.4 µM [activator, partial curve] | 
Brc1cccc(/C=N/Nc2nn[nH]n2)c1 |  | inactive: 3.59%
CCOC(=O)N1CCC(NC(=O)c2cc(COc3ccccc3SC)on2)CC1 |  | inactive: -3.23%
COc1ccc(N2CC(O)=C(c3nc(-c4ccc(Br)cc4)cs3)C2=N)cc1 |  | inactive: 8.77%
CCc1nnc(NC(=O)Nc2ccccc2OC)s1 | inconclusive: 20.6 µM [activator, single point] | 
